Test results as given in PubChem BioAssay AID1671190 (National Center for Advancing Translational Sciences (NCATS), 2021).
About 6,100 (1.1%) of roughly 580,000 compounds were called active. The shares of active, inactive and inconclusive entries below differ from those in the screen. Calls come from the whole dose curve; as a rule, active = well fitted inhibition curve with a large enough effect; inconclusive = small, poorly fitted or top-dose-only effect, or another doubt; inactive = no such curve, though single readings can be large or run the other way. Potencies of inconclusive entries are doubtful fits and often do not repeat.

The chains behind the UniProt entries cited, without tags or fusion partners. Where a name states a change or a piece, a line headed by the entry shows the natural chain unless it says otherwise.
UniProt P18054: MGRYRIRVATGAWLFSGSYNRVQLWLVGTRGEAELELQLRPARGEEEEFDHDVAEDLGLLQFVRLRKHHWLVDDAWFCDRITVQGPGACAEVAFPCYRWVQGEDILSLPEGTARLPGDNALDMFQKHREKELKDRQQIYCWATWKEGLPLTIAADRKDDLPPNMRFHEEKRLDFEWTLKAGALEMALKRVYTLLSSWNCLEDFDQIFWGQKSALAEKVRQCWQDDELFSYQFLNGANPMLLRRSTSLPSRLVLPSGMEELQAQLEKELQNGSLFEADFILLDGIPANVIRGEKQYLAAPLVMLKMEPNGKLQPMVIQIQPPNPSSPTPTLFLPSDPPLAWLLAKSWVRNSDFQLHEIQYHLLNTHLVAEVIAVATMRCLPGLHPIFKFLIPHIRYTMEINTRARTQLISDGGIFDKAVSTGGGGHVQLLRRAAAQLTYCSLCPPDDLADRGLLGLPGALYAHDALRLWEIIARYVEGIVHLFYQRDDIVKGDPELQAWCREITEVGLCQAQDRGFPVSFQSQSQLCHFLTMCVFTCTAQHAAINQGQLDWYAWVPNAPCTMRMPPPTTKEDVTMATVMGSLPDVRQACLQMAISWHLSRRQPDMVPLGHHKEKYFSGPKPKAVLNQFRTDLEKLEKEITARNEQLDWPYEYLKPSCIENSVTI

Each molecule was assayed against Polyunsaturated fatty acid lipoxygenase ALOX12 (Homo sapiens) (UniProt P18054) (assay: Primary qHTS assay for inhibitors of human arachidonate 12S-lipoxygenase (ALOX12): Round 2). Conditions: purified 12hLO, xylenol orange hydroperoxide absorbance; activity change, negative = inhibition: at 108 µM (top of the series) unless noted.
Method in brief: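 Hydroperoxide product was detected by ferrous iron/xylenol orange as the 573 to 405 nm absorbance ratio. Arachidonic acid at 40 uM (final) was turned over for 30 min at room temperature by 150 nM human 12hLO, pH 7.0 Hepes buffer, after 15 min compound preincubation.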
% is set by controls: 0 for no effect and ±100 for the full control effect; potency is the fitted concentration of half-maximal effect.

Row | SMILES | Potency | activity change, negative = inhibition
1 | O=C(NNS(=O)(=O)c1ccccc1)c1cc2cc3ccccc3nc2s1 | inconclusive: 3.98 µM [inhibitor, full curve, poor fit] | 
2 | Cc1c(-c2nc3ccccc3[nH]2)c(NC(=O)CC(C)C)n(CC2CCCO2)c1C (stereo unspecified) | inactive | 
3 | O=C1NC[C@H](Cc2ccc(O)cc2)N(C[C@@H]2CCCN2C[C@H](Cc2ccc(O)cc2)N2C[C@H](Cc3ccccc3)N(CC3CCCCCC3)C(=O)C2=O)C1=O | inconclusive: 50.1 µM [inhibitor, partial curve, poor fit] | 
4 | CN(Cc1ccc(Cl)cc1)C(=O)c1[nH]c(C(F)(F)F)nc1-c1ccccc1 |  | inconclusive: -33.9% [inhibitor]
5 | CCCNc1c(NC(=O)c2ccc(Br)o2)c(=O)oc2ccccc12 | inactive | 
6 | O=C(NCCC1=CCCCC1)c1ccc2c(c1)N(Cc1ccc(Cl)cc1)C(=O)c1ccccc1S2=O (stereo unspecified) | inconclusive: 2.24 µM [inhibitor, full curve, poor fit] | 
7 | CN1C(=O)N(CC(=O)NCc2ccc(Cl)cc2Cl)C(=O)C12CCCCC2 | inconclusive: 39.8 µM [inhibitor, partial curve, poor fit] | 
8 | Cc1ccc(C)c(NC(=O)CSc2ccc(-c3ccco3)nn2)c1 | inconclusive: 89.1 µM [inhibitor, partial curve, poor fit] | 
9 | COc1ccc(-c2cc(C(=O)NCC(c3ccco3)N(C)C)c3ccccc3n2)cc1OC (stereo unspecified) | inconclusive: 89.1 µM [inhibitor, single point] | 
10 | C[C@@H](NC(=O)c1[nH]cnc1C(=O)Nc1ccc(Cl)cc1)c1ccccc1 | inconclusive: 70.8 µM [inhibitor, partial curve, poor fit] | 
11 | O=C(CCc1c[nH]c2ccccc12)Nc1cccc(Cl)c1F | inactive | 
12 | COc1ccc(NC(=S)/N=C(\N)Nc2nc(C)c3ccccc3n2)cc1 | inconclusive: 141 µM [inhibitor, single point] | 
13 | CCC1=Nc2ccccc2NC2=C1C(=O)CCC2 | inconclusive: 35.5 µM [inhibitor, partial curve, poor fit] | 
14 | Cc1ccc2[nH]c(C)c(CC(=O)NCC(C)(C)CN(C)C)c2c1 | inactive | 
15 | CC(=O)OC1C2COC(O2)C(OC(C)=O)C1OC(C)=O (stereo unspecified) | inactive | 
16 | COC(=O)C1=C(C)N(C)C(=NCc2cc(OC)c(OC)c(OC)c2)NC1c1ccc(Cl)cc1 (stereo unspecified) | inconclusive: 70.8 µM [inhibitor, partial curve, poor fit] | 
17 | S=C(NCCc1ccccc1)Nc1ccccc1Cl | inconclusive: 50.1 µM [inhibitor, partial curve] | 
18 | Oc1cccc(-c2cnc3n[nH]c(-c4ccccc4)c3n2)c1 | inconclusive: 70.8 µM [inhibitor, full curve, poor fit] | 
19 | CSc1ccc(CN2CCc3c([nH]c4ccccc34)C2)cc1 | inconclusive: 1.41 µM [inhibitor, full curve] | 
20 | CCOC(=O)C1=C(C)NC(=S)NC1c1cccc(O)c1 (stereo unspecified) | inconclusive: 4.47 µM [inhibitor, partial curve, poor fit] | 
21 | Cc1ccc(CNC(=O)CN2CCCN(Cc3ccc(F)cc3)S2(=O)=O)cc1 | inconclusive: 126 µM [inhibitor, partial curve, poor fit] | 

Row | SMILES | Potency | activity change, negative = inhibition
22 | COC(=O)NNC(=S)NC(=O)c1ccccc1 | inconclusive: 35.5 µM [inhibitor, partial curve, poor fit] | 
23 | Cc1ccc2c(CN3CCN(c4ccccc4)CC3)cc(=O)oc2c1C | inconclusive: 44.7 µM [inhibitor, partial curve, poor fit] | 
24 | O=C(Nc1ccccc1Cl)C1C(c2ccccc2)C1(Cl)Cl (stereo unspecified) | inconclusive: 50.1 µM [inhibitor, partial curve, poor fit] | 
25 | COc1ccc(C(C)=O)cc1COc1ccc(Cl)c(C)c1 | inconclusive: 8.91 µM [inhibitor, full curve] | 
26 | Cc1cccc(C)c1N1CCN(C(=O)N2CCOCC2)CC1 | inactive | 
27 | COC(=O)[C@@]1(Sc2ccc(OC)cc2)CC(=O)N(c2ccc(OC(C)C)cc2CO)[C@@H]1c1ccc(OC(C)C)c(OC)c1 | inactive | 
28 | COCCn1c(-c2cc(Cl)ccc2OC)n[nH]c1=S | inconclusive: 10 µM [inhibitor, full curve, poor fit] | 
29 | CCn1c(SC)nnc1-c1sc2cc(Cl)ccc2c1Cl | inconclusive: 89.1 µM [inhibitor, single point] | 
30 | CCN(Cc1ccc(Cl)s1)C(=O)c1cccc(OCc2c(C)noc2C)c1 | inconclusive: 39.8 µM [inhibitor, partial curve] | 
31 | COc1cccc(OC)c1OCc1cc(C2C3CCCC=C3C(C#N)=C(N)C2(C#N)C#N)c(C)cc1C (stereo unspecified) | inconclusive: 44.7 µM [inhibitor, partial curve, poor fit] | 
32 | CC(=O)Oc1ccc2c(-c3cc4ccccc4oc3=O)cc(=O)oc2c1 | inconclusive: 56.2 µM [inhibitor, partial curve, poor fit] | 
33 | Cc1ccc(C(=O)NN2CC(O)=C(c3nc(-c4cccc([N+](=O)[O-])c4)cs3)C2=N)cc1 | inactive | 
34 | Cc1ccc(S(=O)(=O)Oc2ccc(/C=C3/N=C(c4ccccc4)OC3=O)cc2)cc1 |  | inconclusive: -31.5% [inhibitor]
35 | O=c1[nH]c(=O)n(Cc2ccco2)c2nccc(-c3ccc4c(c3)OCO4)c12 | inconclusive: 63.1 µM [inhibitor, partial curve, poor fit] | 
36 | CC(C(=O)NC(=O)NC12CC3CC(CC(C3)C1)C2)n1cnc2c1c(=O)n(C)c(=O)n2C (stereo unspecified) | inactive | 
37 | CN1CCC(Oc2ccccc2Sc2ccccc2)CC1 | inconclusive: 2.51 µM [inhibitor, full curve, poor fit] | 
38 | CCOc1ccccc1OCCCOc1ccc([N+](=O)[O-])cc1Cl | inactive | 
39 | Cc1ccc(NC(=S)NC(C)CCc2ccccc2)cc1C (stereo unspecified) | inconclusive: 44.7 µM [inhibitor, partial curve, poor fit] | 
40 | COc1cc(C(=S)N2CCC(C(N)=O)CC2)ccc1O |  | inconclusive: -30.8% [inhibitor]
41 | O=C(Nc1ccccc1F)N1CC(=O)N2[C@H](CO)[C@@H](c3ccc(Br)cc3)[C@@H]2C1 | inconclusive: 89.1 µM [inhibitor, single point] | 

In another format: three of the compounds above.

| Row | SMILES | Potency | activity change, negative = inhibition |
| --- | --- | --- | --- |
| 23 | Cc1ccc2c(CN3CCN(c4ccccc4)CC3)cc(=O)oc2c1C | inconclusive: 44.7 µM [inhibitor, partial curve, poor fit] |  |
| 35 | O=c1[nH]c(=O)n(Cc2ccco2)c2nccc(-c3ccc4c(c3)OCO4)c12 | inconclusive: 63.1 µM [inhibitor, partial curve, poor fit] |  |
| 39 | Cc1ccc(NC(=S)NC(C)CCc2ccccc2)cc1C (stereo unspecified) | inconclusive: 44.7 µM [inhibitor, partial curve, poor fit] |  |
